Taken from: PubChem BioAssay AID504786 (Drosophila RNAi Screening Center, 2011)

- Aim: 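Fly genes required for HIF-dependent transcription when hypoxia is mimicked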 (primary screen)
- System: Drosophila S2 cells with a stable HIF luciferase reporter
- Reagents: long dsRNA against Drosophila genes, about 0.2 µg dsRNA per well of a 384-well plate
- Timing: three days of knock-down, then 20 h of DFO before reading
- Treatment: desferrioxamine (DFO) at 100 µM, an iron chelator that mimics hypoxia, for 20 h
- Detection: 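HIF reporter luminescence in cells given 100 µM DFO for 20 h, using the mouse ldh-a hypoxia-response element, scored as per-plate z-scores; higher means greater loss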
- Scale: z-score: higher = stronger loss of HIF reporter signal
The screen tested about 21,000 reagents; shown is an unselected part of those with a known target gene and a result. 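Primary screen; positive scores mean lost reporter signal, so the sign may be inverted from the usual convention.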 Reagents against one gene are numbered here. Names joined by + are all predicted targets of the reagent.

| Gene | reagent no. | z-score, replicate 1 | z-score, replicate 2 |
| --- | --- | --- | --- |
| CG9106 | 1 | -0.3 | -0.4 |
| da | 1 | -0.1 | -0.1 |
| mav | 1 | -0.3 | -0.5 |
| CG8191 + CG12379 | 1 | -0.3 | -1 |
| MSBP | 1 | -0.3 | -0.3 |
| Cyp12a5 | 1 | -1.1 | 0.4 |
| dy | 1 | -0.2 | 0.1 |
| CG42570 | 1 | 0.6 | 0.7 |
| Vhl | 1 | -0.3 | 0.1 |
| eya | 1 | -0.2 | -0.2 |
| thoc5 | 1 | -0.2 | -0.2 |
| CG4957 | 1 | -0.1 | 0.1 |
| CG30031 + deltaTry + gammaTry | 1 | -0.2 | -0.7 |
| E(bx) | 1 | -0.3 | 0.8 |
| E(bx) | 2 | -0.2 | 1.1 |
| E(bx) | 3 | -0.2 | 0.2 |
| rut | 1 | 2.1 | 4.4 |
| DIP2 | 1 | -0.2 | 0.1 |
| Mtl | 1 | -0.3 | 0.9 |
| CG3635 | 1 | -0.1 | -0.3 |
| CG14974 | 1 | 0.1 | -0.3 |
| CG8509 | 1 | -0.2 | -0.2 |
| Brms1 | 1 | -0.1 | 0 |
| Ugt316A1 | 1 | -0.2 | -0.1 |
| djl | 1 | -0.1 | 0.2 |
| Phae2 | 1 | -0.4 | -0.2 |
| CYLD | 1 | 0 | 0.2 |
| l(2)34Fc | 1 | 2.5 | -0.4 |
| ppk24 | 1 | 0 | 0.5 |
| CG11980 | 1 | -0.2 | -0.4 |
| Gpdh2 | 1 | -0.4 | -0.3 |
| St2 | 1 | -0.4 | -0.2 |
| naz | 1 | -0.6 | -0.3 |
| naz | 2 | -0.5 | -0.2 |
